Measured values: patent publication JP2011219380A
Results are given in words; binding and its absence hold for the method and conditions named. Some entries that bind do so weakly or less than the wild type.

The chains behind the UniProt entries cited, without tags or fusion partners. Where a name states a change or a piece, a line headed by the entry shows the natural chain unless it says otherwise.
UniProt O43915: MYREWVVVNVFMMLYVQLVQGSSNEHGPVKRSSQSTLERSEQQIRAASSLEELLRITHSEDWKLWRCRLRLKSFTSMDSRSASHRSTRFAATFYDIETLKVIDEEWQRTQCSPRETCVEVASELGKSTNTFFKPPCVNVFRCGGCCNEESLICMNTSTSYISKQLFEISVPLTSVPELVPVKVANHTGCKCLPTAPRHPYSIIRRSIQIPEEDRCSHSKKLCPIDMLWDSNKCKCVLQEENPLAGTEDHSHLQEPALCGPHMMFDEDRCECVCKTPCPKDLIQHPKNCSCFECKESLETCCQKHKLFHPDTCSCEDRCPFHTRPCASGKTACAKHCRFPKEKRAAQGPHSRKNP

What was measured:
[1] = target: 成熟型カニクイザルVEGF-D(Hisタッグ付加、二量体、参考例3) (cynomolgus monkey); experiment: competition cell ELISA, antibody titrated against 2.5 ug/mL cynomolgus VEGF-D on cynomolgus VEGFR-3 CHO cells
[2] = target: 成熟型ヒトVEGF-D(Hisタッグ付加、二量体、参考例3) (human) (UniProt O43915); experiment: competition cell ELISA, antibody titrated against 2.5 ug/mL human VEGF-D on human VEGFR-3 CHO cells

binding [1]: binds
binding [2]: binds
B1: キメラVE48抗体 (antibody, human IgG1, kappa, V domains shown)
VH: QVTLKESGPGILQPSQTLSLTCSFSGFSLSTYGMGVGWIRQPSGKGLEWLANIWWNDDKYYNPVLRSRLTISKDTSNNQVFLKISIVDTADTATYYCVQVTNPFVFWGQGTLVTVSA
VL: DVVMTQTPLSLPVSLGDQASISCRSSQSLVHNNGNTYLHWYLQKPGQSPKLLIYKVTNRFSGVPDRFSGSGSGTDFTLKISRVEAEDLGVYFCSQSTHVPWTFGGGTKLEIER
